According to patent publication US20100056522A1, “INTRAOCULAR PRESSURE-LOWERING AGENT COMPRISING COMPOUND HAVING HISTONE DEACETYLASE INHIBITOR EFFECT AS ACTIVE INGREDIENT” (Santen Pharmaceutical Co., Ltd., priority 2007, published 2010):

Test system: HDAC (HeLa nuclear extract)
Assay: Test for evaluation of an HDAC inhibitory effect (HDAC Fluorimetric Assay/Drug Discovery Kit, Biomol)
Format: biochemical
Details: final concentration of test compound 30 μM, rates of more than 100% are shown as 100%
Description: Using HDAC Fluorimetric Assay/Drug Discovery Kit (manufactured by Biomol), an HDAC inhibitory effect of the present compounds was measured according to the protocol included with the kit. The kit contains Buffer, HeLa nuclear extract (includes an HDAC), Substrate, Developer and Trichostatin A (an HDAC inhibitor).
A test compound was dissolved in dimethyl sulfoxide, whereby a 2 mg/mL solution was prepared. Then, the resulting solution was diluted with Buffer containing 5% dimethyl sulfoxide, whereby a 150 μM test compound solution was prepared.
1) To a 384-well culture plate, the test compound solution was added in an amount of 2 μL per well.
2) HeLa nuclear extract was diluted 30-fold with Buffer. The resulting solution was added in an amount of 3 μL per well and then, incubation was performed at 37° C. for 2 hours.
3) Substrate was diluted 500-fold with Buffer. […]
5) The fluorescence intensity of each well was measured using multilabel counter ARVO (manufactured by Wallac) with excitation at 360 nm and emission at 460 nm. […]
Enzyme inhibitory rate (%) was calculated using the following equation.
(Enzyme Inhibitory Rate(%))=100×[1−{(Fluorescence Intensity of Test Compound Solution)−(Florescence Intensity of Blank)}/{(Florescence Intensity of Control)−(Florescence Intensity of Blank)}]

O=C(CCCCCCC(=O)Nc1ccccc1)NO [SAHA, N-Hydroxy-N′-phenyloctanediamide, reference compound]
Enzyme Inhibitory Rate (%): 97%
